Results deposited as PubChem BioAssay AID1259424 (University of Nebraska Medical Center, 2018)
Here is a random part of about 14,000 deposited reagents. 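Higher correlation or smaller distance means closer resemblance to KSR1 loss; control wells, including KSR1 knockdowns, recur on many plates.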 Not all columns of the deposit are shown. Reagent sequences are not shown. The record does not give: the time to read-out.

Aim: 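Seek colon cancer survival genes behaving like KSR1, using a six-gene signature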 (primary screen)
Cell system: human HCT116 colon cancer cells
Reagent: siRNA pool against human genes, 50 nM
Measured: 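Six signature mRNAs by branched-DNA multiplex assay, scaled to two housekeeping genes and non-targeting median, log2; matched to mean KSR1 knockdown profile by Pearson correlation and euclidean distance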
Direction: mean correlation with KSR1 profile: higher = expression change more like KSR1 knockdown; mean distance from KSR1 profile: higher = expression change less like KSR1 knockdown

MATCAP2 → mean correlation with KSR1 profile: 0.627; mean distance from KSR1 profile: 2.81
EDEM2 → mean correlation with KSR1 profile: -0.0569; mean distance from KSR1 profile: 2.12
ABHD5 → mean correlation with KSR1 profile: -0.0106; mean distance from KSR1 profile: 1.81
PKN3 → mean correlation with KSR1 profile: 0.799; mean distance from KSR1 profile: 2.85
TUBB4B → mean correlation with KSR1 profile: 0.0783; mean distance from KSR1 profile: 1.42
APOH → mean correlation with KSR1 profile: 0.265; mean distance from KSR1 profile: 1.2
ACTN3 → mean correlation with KSR1 profile: 0.0746; mean distance from KSR1 profile: 2.26
MRGPRX1 → mean correlation with KSR1 profile: 0.371; mean distance from KSR1 profile: 2.82
ADAMTS19 → mean correlation with KSR1 profile: -0.267; mean distance from KSR1 profile: 2.18
CTBP2 → mean correlation with KSR1 profile: 0.0964; mean distance from KSR1 profile: 2.32
TRMT5 → mean correlation with KSR1 profile: 0.0943; mean distance from KSR1 profile: 1.21
MRPL50 → mean correlation with KSR1 profile: -0.417; mean distance from KSR1 profile: 2.03
IL11RA → mean correlation with KSR1 profile: 0.116; mean distance from KSR1 profile: 1.34
PNOC → mean correlation with KSR1 profile: 0.704; mean distance from KSR1 profile: 0.969

Continued, starting with the last 3 of the part before.
MRPL50 → mean correlation with KSR1 profile: -0.417; mean distance from KSR1 profile: 2.03
IL11RA → mean correlation with KSR1 profile: 0.116; mean distance from KSR1 profile: 1.34
PNOC → mean correlation with KSR1 profile: 0.704; mean distance from KSR1 profile: 0.969
CEBPB → mean correlation with KSR1 profile: -0.53; mean distance from KSR1 profile: 1.86
CSGALNACT1 → mean correlation with KSR1 profile: -0.165; mean distance from KSR1 profile: 3.54
GRIN1 → mean correlation with KSR1 profile: 0.499; mean distance from KSR1 profile: 1.86
EEF2K → mean correlation with KSR1 profile: 0.185; mean distance from KSR1 profile: 2.1
TPRA1 → mean correlation with KSR1 profile: 0.319; mean distance from KSR1 profile: 2.07
CACNB4 → mean correlation with KSR1 profile: 0.611; mean distance from KSR1 profile: 3.46
OASL → mean correlation with KSR1 profile: -0.0245; mean distance from KSR1 profile: 1.75
ZC3H7A → mean correlation with KSR1 profile: 0.0251; mean distance from KSR1 profile: 1.5
EFCAB14 → mean correlation with KSR1 profile: 0.505; mean distance from KSR1 profile: 1.22
DPPA4 → mean correlation with KSR1 profile: -0.476; mean distance from KSR1 profile: 2.02
PIEZO1 → mean correlation with KSR1 profile: -0.487; mean distance from KSR1 profile: 3.28
NCOA7 → mean correlation with KSR1 profile: -0.331; mean distance from KSR1 profile: 2.32
SOCS4 → mean correlation with KSR1 profile: -0.173; mean distance from KSR1 profile: 1.67
EIF1AY → mean correlation with KSR1 profile: -0.164; mean distance from KSR1 profile: 1.87
BPGM → mean correlation with KSR1 profile: -0.112; mean distance from KSR1 profile: 2.74
GIPC1 → mean correlation with KSR1 profile: 0.837; mean distance from KSR1 profile: 0.868
HHEX → mean correlation with KSR1 profile: 0.625; mean distance from KSR1 profile: 1.83
OR51E1 → mean correlation with KSR1 profile: 0.916; mean distance from KSR1 profile: 1.94
ACKR4 → mean correlation with KSR1 profile: 0.93; mean distance from KSR1 profile: 0.601
PALM2AKAP2 → mean correlation with KSR1 profile: 0.341; mean distance from KSR1 profile: 1.61
STAP1 → mean correlation with KSR1 profile: -0.406; mean distance from KSR1 profile: 2.63
DUOX1 → mean correlation with KSR1 profile: -0.504; mean distance from KSR1 profile: 6.75
